{"source": "PubChem BioAssay AID1347171", "about": "(National Center for Advancing Translational Sciences (NCATS), 2019)", "test": "Orthogonal mCherry assay for qRT-PCR qHTS of selected Zika virus inhibitors", "source_text": "Description: Assay Submitters (PI): Avindra Nath, Ph.D., National Institute of Neurological Disorders and Stroke (NINDS), Bethesda, MD Radhakrishnan Padmanabhan, Ph.D., Georgetown University (GU), Washington D.C. Zika Virus causes congenital defects, including microcephaly and is associated with Guillain-Barre syndrome, eningoencephalitis and myelitis in infected adult. […] Using a target-based approach, we hope to establish a screening paradigm to uncover novel, cell-active NS2B-NS3 protease (Zika Virus) specific inhibitors from NCATS' collection of small molecules using qHTS. […] Four assay panel was created to identify potential Zika Virus inhibitors. Namely, (1) GU unlinked NS2B-NS3 AMC tagged protease qHTS, (2) GU unlinked NS2B-NS3 Rhodamine tagged protease qHTS, (3) NINDS linked NS2B-NS3 AMC tagged protease qHTS, (4) NINDS linked NS2B-NS3 Rhodamine tagged protease qHTS. Inhibitors of the Zika virus primary screens are confirmed using qRT-PCR secondary assays, mCherry orthogonal assay, and Vero cells viability counterscreen. Early Translation Branch (ETB) National Center for Advancing Translational Sciences (NCATS), Rockville, MD National Institute of Health (NIH), Bethesda, Maryland\n384 well ZIKV-mCherry Assay: We have developed a new orthogonal imaging assay in 384-well plate format, which uses recombinant virus ZIKV-mCherry in Vero cells. Briefly, 30 microL of Vero cells derived from a green monkey cell line, were dispensed by Multidrop Dispenser into a clear solid bottom black 384 well plate (ultracarrier, Perkin Elmer LifeSciences) at a concentration of 5,000 cells per well. The plate was incubated overnight in a CO2 incubator at 37 degrees C. Compounds were delivered as a 126 nL DMSO solution by Kalypsys pintool transfer. Following compound transfer, 10 microL of ZIKV-mCherry was added at an MOI of 1 and incubated in a CO2 incubator for 48-72 hrs at 37 degrees C. After sufficient incubation of infected cells in test plates, 8 microL of 32% PFA was dispensed into assay plates to fix cells and incubated for 20 min at room temperature. Plates were washed 3 times with PBS using BioTek EL406 microplate washer/dispenser. After washing, 30 microL of PBS with 0.01% TX-100 containing Hoechst dye was dispensed into the each well of the plates for nuclear staining. […] The TIFFs were quantitated using the canned Multi Target Analysis protocol (GE Investigator Workstation software v3.7.2). […] A recombinant Zika viral infection was monitored in the Cy5 channel (cells) using a 2 microm collar dilation from the nuclear bitmap. mCherry objects with an average nuclear RFU intensity above 450 (3 stdev above mean negative control wells) were considered \"mcherry positive\" and data was analyzed by percent infection rate.", "note": "Inconclusive means that the source gave no clear call. Such entries were picked first, then a sample of the others. Potencies beside an inconclusive call are fits to weak or partial responses and may not hold up. Active and inactive are the calls of the source. The call rests on the fitted dose curve; in most records, active means well fitted inhibition curve with a large enough effect; inconclusive means small, poorly fitted or top-dose-only effect; inactive means no such curve, though single readings can be large or run the other way."}
{"smiles": "CC(C)=CCC[C@]1(C)C=Cc2c(O)c3c(c(CC=C(C)C)c2O1)O[C@]12C(=C[C@@H]4CC1C(C)(C)O[C@@]2(C/C=C(/C)C(=O)O)C4=O)C3=O", "values": [{"measurement": "Potency", "result": "active: 3.55 µM"}]}
{"smiles": "O=C1OC(c2ccc(O)c(S(=O)(=O)O)c2)(c2ccc(O)c(S(=O)(=O)O)c2)c2c(Br)c(Br)c(Br)c(Br)c21", "values": [{"measurement": "Potency", "result": "inactive"}]}
{"smiles": "O=C(Nc1ccc(Br)cc1)c1cc(Br)cc(Br)c1O", "values": [{"measurement": "Potency", "result": "inconclusive: 6.31 µM [inhibitor, full curve, poor fit]"}]}
{"smiles": "CC(=O)c1c(O)c(C)c(O)c(Cc2c(O)c3c(c(C(=O)/C=C/c4ccccc4)c2O)OC(C)(C)C=C3)c1O", "values": [{"measurement": "Potency", "result": "active: 11.2 µM"}]}
